Literature values in patent US20200061090A1, “AGENT FOR PREVENTING WORSENING OF INSULIN RESISTANCE OR AMELIORATING INSULIN RESISTANCE” (B FOOD SCIENCE CO., LTD., priority 2017, published 2020).
At least one structure is not confirmed: it was looked up by name or label, or the drawing left a doubt.

What was measured:
[1] = tested on: yellow KK mice; conditions: Ikeda H et al. 1990; cited from earlier work
[2] = tested on: old obese beagle dogs; conditions: insulin resistance positive, Ikeda H et al. 1990; cited from earlier work
[3] = tested on: rats induced to have insulin resistance by 10% fructose solution; conditions: 10 mg/kg of body weight/day for 4 weeks; fructose-drinking rats; Masami S. et al. 1997; cited from earlier work
[4] = tested on: patients with type 2 diabetes and a coronary artery disease; conditions: compared with glimepiride; Nissen S E et al. 2008; cited from earlier work

CCc1ccc(CCOc2ccc(CC3SC(=O)NC3=O)cc2)nc1 (stereo not shown) [pioglitazone]
Effect on high blood glucose, lipid abnormality (hyperlipemia), hyperinsulinemia and impaired glucose tolerance [1]: notably ameliorates
Effect on fasting blood glucose levels and fasting blood lipid levels [2]: decreases fasting blood glucose levels and fasting blood lipid levels
Effect on insulin resistance, high blood lipids, hyperinsulinemia and high blood pressure [3]: all symptoms are ameliorated
Suppression of arteriosclerosis progress [4]: progress suppression effect was confirmed
